Experimental data published in patent US11530240B2, “Catheter injectable cyclic peptide pro-gelators for myocardial tissue engineering” (The Regents of the University of California, priority 2017, dated 2022).
Some results were stated once for a whole list of compounds, not compound by compound.

Key:
[1] = Complex viscosity measurement; format: physicochemical; details: 10 mM peptide; vs unmodified KLDL / KFDF SAP
[2] = Formulation stability against aggregation in 1×DPBS (TEM, DLS); format: physicochemical; details: pH switch 9.0 to 7.4; dilute (100 μM) and concentrated (10 mM)

CKLDLKLDLKLDLPLGLAGC (SEQ ID NO:6) (cyclized) [KLDL (SEQ ID NO:5)Cyclic, unlabeled cyclized enzyme-responsive progelator]
viscosity, fold lower than corresponding unmodified SAP [1]: over 20 ×

C(KFDF)3PLGLAGC (SEQ ID NO: 7) (CKFDFKFDFKFDFPLGLAGC) [KFDF (SEQ ID NO:1)Linear, modified linear SAP primed for cyclization, no fluorescent label]
incubation period over which formulation in 1×DPBS is stable [2]: up to 3 days
